Source: paper PMC4575180 (2015)
These are yes or no findings as the source states them, for the method shown. Some binding calls cover weakened binding; strength is not graded here. For part of these data: Tags and fused reporters may be left off the sequences shown.

Sequences of proteins named here, by UniProt entry; tags and fusion partners are left off.
UniProt Q08850: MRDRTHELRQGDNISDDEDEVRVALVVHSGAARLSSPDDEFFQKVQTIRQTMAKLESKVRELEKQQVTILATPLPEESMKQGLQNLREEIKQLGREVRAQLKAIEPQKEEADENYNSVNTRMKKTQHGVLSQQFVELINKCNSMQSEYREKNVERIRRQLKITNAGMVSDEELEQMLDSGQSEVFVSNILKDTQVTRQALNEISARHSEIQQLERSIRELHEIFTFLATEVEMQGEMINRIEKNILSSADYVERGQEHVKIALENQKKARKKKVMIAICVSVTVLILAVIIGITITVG
UniProt P70452: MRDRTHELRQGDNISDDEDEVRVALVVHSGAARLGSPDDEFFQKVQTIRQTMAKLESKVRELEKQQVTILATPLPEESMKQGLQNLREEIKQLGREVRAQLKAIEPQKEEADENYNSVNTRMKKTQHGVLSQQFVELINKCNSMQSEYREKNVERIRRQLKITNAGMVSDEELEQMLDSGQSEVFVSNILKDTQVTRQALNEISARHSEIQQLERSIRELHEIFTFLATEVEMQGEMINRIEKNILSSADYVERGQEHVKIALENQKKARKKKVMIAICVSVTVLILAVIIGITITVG

Assays:
His6-SNAP-23 = molecular target: T1, His6-SNAP-23 (UniProt O09044); test: co-purification on Ni-NTA after co-expression; untagged syntaxin4 co-expressed with His6-SNAP-23 in E. coli BL21(DE3); lysate with beta-OG on Ni-NTA resin, Buffer B (25mM HEPES-KOH pH 7.5, 0.4M KCl, 10% glycerol, 20mM imidazole), 4°C, eluted with 200mM imidazole
T1 sequence: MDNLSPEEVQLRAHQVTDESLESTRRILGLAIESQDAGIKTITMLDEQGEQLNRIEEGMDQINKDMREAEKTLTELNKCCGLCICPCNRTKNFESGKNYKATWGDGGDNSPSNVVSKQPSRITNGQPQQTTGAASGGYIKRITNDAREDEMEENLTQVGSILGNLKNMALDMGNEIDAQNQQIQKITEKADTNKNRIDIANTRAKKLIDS

syntaxin4 (rat) = syntaxin4 (rat) (UniProt Q08850); test: pull-down; membrane-anchored full-length syntaxins with Munc18b or Munc18c (S4C Fig); bait and conditions not shown; both purified
syntaxin3 = molecular target: T2, syntaxin3 (Rattus norvegicus (Rat), UniProt Q08849); test: as above
T2 chain: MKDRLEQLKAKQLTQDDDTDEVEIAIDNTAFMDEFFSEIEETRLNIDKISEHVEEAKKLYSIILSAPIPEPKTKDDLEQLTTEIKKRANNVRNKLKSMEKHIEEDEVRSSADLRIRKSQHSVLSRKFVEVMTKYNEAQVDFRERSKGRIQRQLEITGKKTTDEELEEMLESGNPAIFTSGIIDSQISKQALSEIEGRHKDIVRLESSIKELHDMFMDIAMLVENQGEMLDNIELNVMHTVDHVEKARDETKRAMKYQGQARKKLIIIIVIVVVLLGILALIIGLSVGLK

## untagged syntaxin4 (from UniProt P70452 1-298)
His6-SNAP-23
  binding: binds

B1: Munc18b (protein, UniProt Q62753 1-594)
chain: MAPLGLKAVVVEKILSGVIRSVKKDGEWKVLIMDHPSMRILSSCCKMSDILAEGITIVEDINKRREPIPSLEAIYLLSPTEKSVQALIADFQGTPTFTYKAAHIFFTDTCPEPLFSELGRSRLAKVVKTLKEIHLAFLPYEAQVFSLDAPHSTYNLYCPFRAGERGRQLDVLAQQIATLCATLQEYPSIRYRKGPEDTAQLAHAVLAKLNAFKADTPSLGEGPEKTRSQLLIMDRAADPVSPLLHELTFQAMAYDLLHIEQDTYRYETTGLSESREKAVLLDEDDDLWVELRHMHIADVSKKVTELLKTFCESKRLTTDKANIKDLSHILKKMPQYQKELNKYSTHLHLADDCMKHFKGSVEKLCGVEQDLAMGSDAEGEKIKDTMKLIVPVLLDASVPPYDKIRVLLLYILLRNGVSEENLAKLIQHANVQSYSNLIRNLEQLGGTVTNSAGSGTSSRLERRERMEPTYQLSRWSPVIKDVMEDVVEDRLDRKLWPFVSDPAPVSSSQAAVSSARFGHWHKNKAGIEARAGPRLIVYIVGGVAMSEMRAAYEVTRATEGKWEVLIGSSHILTPTRFLDDLRTLDQKLEDIALP
syntaxin4 (rat)
  binding: binds
syntaxin3
  binding: binds
